From article PMC7819943, “Rice protein-binding microarrays: a tool to detect cis-acting elements near promoter regions in rice”
The list shows a part of the results.

The sequences below were run against T1, OsSMF1 (Oryza sativa, UniProt Q6ZLB0 1-436) (assay: protein-binding microarray (RPBM); PBS, 2% BSA, 51.3 ng/ul salmon testes DNA, 50 uM zinc acetate, 200 nM TF, 25 C, 1 h; high values mean tight binding). Settings: protein: recombinant; tags: N-terminal polyhistidine and DsRed monomer fusion (pET32a); chain copies: 2; label: CyDye5-dUTP incorporated in the synthesized complementary strand; 3' TTTTT single-stranded linker to array surface; dsDNA, one strand shown.
T1 sequence: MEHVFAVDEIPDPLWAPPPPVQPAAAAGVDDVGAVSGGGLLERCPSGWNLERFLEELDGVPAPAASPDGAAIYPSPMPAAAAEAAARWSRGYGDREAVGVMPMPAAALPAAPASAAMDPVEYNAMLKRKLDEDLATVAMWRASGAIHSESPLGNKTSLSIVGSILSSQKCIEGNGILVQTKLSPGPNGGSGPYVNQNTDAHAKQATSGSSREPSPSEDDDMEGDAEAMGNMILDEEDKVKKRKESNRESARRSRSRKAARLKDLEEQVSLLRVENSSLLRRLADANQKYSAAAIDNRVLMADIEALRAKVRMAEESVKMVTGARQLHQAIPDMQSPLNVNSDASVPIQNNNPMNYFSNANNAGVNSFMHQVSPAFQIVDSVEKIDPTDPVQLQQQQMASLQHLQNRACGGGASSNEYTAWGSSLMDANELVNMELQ
Summary of the method: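 An Axon 4000B scanner gave the binding signal as per-feature fluorescence intensity in arbitrary units. This followed washing of a custom Agilent array that had been incubated for 1 h at 25 °C with 200 nM protein in PBS, 2% BSA, salmon testes DNA and 50 µM zinc acetate. The proteins were transcription factors fused at the N-terminus to polyhistidine and DsRed, expressed in E. coli BL21-CodonPlus and purified on Ni–NTA.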
In the case of “AGATATGAGTTTTCTTTATGGGTTACTCCTACCTATTAGGCGGAGTCACCTAGTGCAG”, the binding signal is reported as 23300 fluorescence intensity (a.u.).
“CCGTCGCCGCGCTGCGCCGGCGAGCGCCACGGGAGCAGCACGGAGTCACCTAGTGCAG” was tested, and the binding signal was 4210 fluorescence intensity (a.u.).
“TGCCCCATCCATATATTGCATACATACACACATGCTAGCTCGGAGTCACCTAGTGCAG” was tested, and the binding signal was 3670 fluorescence intensity (a.u.).
“TGCCATATCGCTGCAAAGTTGAAAGTTTTGTTTCAAGTTCCGGAGTCACCTAGTGCAG” was tested, and the binding signal was 5270 fluorescence intensity (a.u.).
“ATGGCGCCCATATATGCCACCGAGTCGTCCGCGGCTATCTCGGAGTCACCTAGTGCAG” was tested, and the binding signal was 3920 fluorescence intensity (a.u.).
For “GATATGATATTGTAAGCTTATAAGATTTGATATGCATTAACGGAGTCACCTAGTGCAG”, the binding signal was 25500 fluorescence intensity (a.u.).
In the case of “TTTGGTTACATTACGGACACTTTTCAAGTTATCAGGTGTGCGGAGTCACCTAGTGCAG”, the binding signal is reported as 4420 fluorescence intensity (a.u.).
For “GTTCATATTAAAGCCCACGTAAAATAATTCTCAGCCCAACCGGAGTCACCTAGTGCAG”, the binding signal was 3460 fluorescence intensity (a.u.).
For “TCCGTGACACCGTGACAGCGTGGACGTTCATAACCTTCCACGGAGTCACCTAGTGCAG”, the binding signal was 9010 fluorescence intensity (a.u.).
“ACGATGTGTAGTGTACATGTACACATATGGAGAGAGAGAGCGGAGTCACCTAGTGCAG” was tested, and the binding signal was 4060 fluorescence intensity (a.u.).
With “TCACCGTTGGATTTGACCACAGTGACCCGTGACGTCTTTGCGGAGTCACCTAGTGCAG” the binding signal was 3560 fluorescence intensity (a.u.).
For “GAATCAATACCAGTATCACTTGTGCTAATAGTACTAGAGGCGGAGTCACCTAGTGCAG”, the binding signal was 21800 fluorescence intensity (a.u.).
In the case of “GAAGATCATGTCAAACACCTCCACGTAGTCGCCACGTTCACGGAGTCACCTAGTGCAG”, the binding signal is reported as 5580 fluorescence intensity (a.u.).
For “TTTCACATGAGATTTATCACATGTGAAGAAAAGGGGAAATCGGAGTCACCTAGTGCAG”, the binding signal was 24000 fluorescence intensity (a.u.).
“CTTCACTTCAGCTCACACCGGACAATTTCTAACGTTAGCTCGGAGTCACCTAGTGCAG” was tested, and the binding signal was 3760 fluorescence intensity (a.u.).
“TAGTACAAGTATATTTACGCGGTCTTTCGGTCTTTGTCCTCGGAGTCACCTAGTGCAG” was tested, and the binding signal was 3700 fluorescence intensity (a.u.).
With “TTATCAGTTGATGATGTGATCAAGATTAGATGCAACATCCCGGAGTCACCTAGTGCAG” the binding signal was 3780 fluorescence intensity (a.u.).
“AATGTGAGAAAGATGATGTAACATCCTTGTATGTTAAGCTCGGAGTCACCTAGTGCAG” was tested, and the binding signal was 3220 fluorescence intensity (a.u.).
For “CCTTGTCCCTTGAACCTCATAGATGGGAATCATTATCAATCGGAGTCACCTAGTGCAG”, the binding signal was 19700 fluorescence intensity (a.u.).
“CTTCCTCTGAACCCACTGCAAGTGTGACAACACGCACCAGCGGAGTCACCTAGTGCAG” was tested, and the binding signal was 4600 fluorescence intensity (a.u.).
For “CAAGTAGCGGCGTACGCTGCCACGCGGGGTGACAGCTTTGCGGAGTCACCTAGTGCAG”, the binding signal was 5180 fluorescence intensity (a.u.).
“TCATATTTGAGTGATGTGTCGGAGTTGTTTTCTATTGCGCCGGAGTCACCTAGTGCAG” was tested, and the binding signal was 5630 fluorescence intensity (a.u.).
With “TGCGGGAGACGCGGCGCATGCGCGGGCGTGGCCGACGTGGCGGAGTCACCTAGTGCAG” the binding signal was 13000 fluorescence intensity (a.u.).
With “CGCACGATGATCATGTGTTGGTGTTGGCATGCAATGCAACCGGAGTCACCTAGTGCAG” the binding signal was 3780 fluorescence intensity (a.u.).
“AGAAACCAAACTGGTTTGTTGTTCGTGTGGACACTGGACACGGAGTCACCTAGTGCAG” was tested, and the binding signal was 3260 fluorescence intensity (a.u.).
“CGTCGTGCCTACGGGCCGTTCGCGTGTCGTGTCGGCCCAACGGAGTCACCTAGTGCAG” was tested, and the binding signal was 3850 fluorescence intensity (a.u.).
In the case of “GTTCAATATACTAATTAGTGTGACATGGCTCTCATCATATCGGAGTCACCTAGTGCAG”, the binding signal is reported as 4420 fluorescence intensity (a.u.).
In the case of “TCCTTTTATTCCCATCACTCCATTCATTGTTCTTGTTCTTCGGAGTCACCTAGTGCAG”, the binding signal is reported as 3190 fluorescence intensity (a.u.).
“GGCCCATATGTTGGCGGACGGCCTCGCGCAGGTCGCGACACGGAGTCACCTAGTGCAG” was tested, and the binding signal was 3150 fluorescence intensity (a.u.).
With “CCTCCTCAACGCCGCCACCTCATCCGTCCATACAGCGCCGCGGAGTCACCTAGTGCAG” the binding signal was 7110 fluorescence intensity (a.u.).
“TAAAATTAGATGACGCACATTGACTAATATAACAATTTGGCGGAGTCACCTAGTGCAG” was tested, and the binding signal was 3800 fluorescence intensity (a.u.).
For “TGGTCACTGCAGCAGGTTCAGGACAAAGCAACCTGTTTCTCGGAGTCACCTAGTGCAG”, the binding signal was 3600 fluorescence intensity (a.u.).
“CATGTCCGCCTACATCCTCGTTCTCGTCATCTTGGTCTGCCGGAGTCACCTAGTGCAG” was tested, and the binding signal was 3310 fluorescence intensity (a.u.).
With “AAAGGATAGCGACGTGACGTGACGCACGCACGCCGCCAGCCGGAGTCACCTAGTGCAG” the binding signal was 8750 fluorescence intensity (a.u.).
For “AGCTATGTTTTGTATACTGATGAGTAAGCTGATTGCGATACGGAGTCACCTAGTGCAG”, the binding signal was 3560 fluorescence intensity (a.u.).
“AATCACACGAGAGAGACACTGAAGTGACACGCTGGCAGGTCGGAGTCACCTAGTGCAG” was tested, and the binding signal was 11200 fluorescence intensity (a.u.).
In the case of “GGCGGCGGCTGGCGAGCTCCCGCTTCCCTACCTGCTTCCCCGGAGTCACCTAGTGCAG”, the binding signal is reported as 3650 fluorescence intensity (a.u.).
For “CGGGGCTTGCAAGGCACGCGCTCATGTCGTCAGATCGGCGCGGAGTCACCTAGTGCAG”, the binding signal was 3410 fluorescence intensity (a.u.).
For “TTCTAGCCAGGCCGAATGGCCGAGCGGATGACGCGGCCACCGGAGTCACCTAGTGCAG”, the binding signal was 8220 fluorescence intensity (a.u.).
For “GAGCCCTTAATCCACTGTTCTAGTGACATAATCCACTGTTCGGAGTCACCTAGTGCAG”, the binding signal was 3320 fluorescence intensity (a.u.).
“CGTTTGGCATCTCCAAAACCGTGACGCTCTCTCCACACGCCGGAGTCACCTAGTGCAG” was tested, and the binding signal was 3480 fluorescence intensity (a.u.).
In the case of “GCAGAGGTGCTGGTGATGATGTCAGTGACAATAATCCATCCGGAGTCACCTAGTGCAG”, the binding signal is reported as 6070 fluorescence intensity (a.u.).
In the case of “AATCTAATAATCCCAAGATTCATAAAAGTAGATTTGACGTCGGAGTCACCTAGTGCAG”, the binding signal is reported as 3540 fluorescence intensity (a.u.).
In the case of “TGAAGGTTTCTCCGAGGAGTAGGCTTTGTCCGTGCCGTCGCGGAGTCACCTAGTGCAG”, the binding signal is reported as 19600 fluorescence intensity (a.u.).
“TGCCCGGCCACCGTCTCCTGCGCCGACGTCCTCGCCCTCACGGAGTCACCTAGTGCAG” was tested, and the binding signal was 3760 fluorescence intensity (a.u.).
With “TATTAGTAGATACCTTCTTCCGGAGATGGCGGACGTGGCTCGGAGTCACCTAGTGCAG” the binding signal was 7320 fluorescence intensity (a.u.).
“CGCTGCCCCAATGCCACTGGACGGTGTCACTCCTGTTGCTCGGAGTCACCTAGTGCAG” was tested, and the binding signal was 3970 fluorescence intensity (a.u.).
With “TTCAGCTCGGCCGCCCTCCCCTTGTCCTTGCGGCACAGCGCGGAGTCACCTAGTGCAG” the binding signal was 3250 fluorescence intensity (a.u.).
“TCCGACGGCCGCCTCATCATCGACTTCATCGGTACGCCTCCGGAGTCACCTAGTGCAG” was tested, and the binding signal was 3770 fluorescence intensity (a.u.).
With “TGCTGAATCGAATGCTTCGATCATCTGAGTAGGCACCCATCGGAGTCACCTAGTGCAG” the binding signal was 4230 fluorescence intensity (a.u.).
With “GCCAATCCAACGACACTCCCGTCACCGCCGACAGCGGCATCGGAGTCACCTAGTGCAG” the binding signal was 5150 fluorescence intensity (a.u.).
For “AGGAGGTGCTTATAGAGGTATGATGTGCGGTGTTTATGTTCGGAGTCACCTAGTGCAG”, the binding signal was 3670 fluorescence intensity (a.u.).
In the case of “GAACGGAACGCAACGTGCGGAGAGAGAGCGAGAGAGAAGCCGGAGTCACCTAGTGCAG”, the binding signal is reported as 30600 fluorescence intensity (a.u.).
“TACAACACAGGACAGATGAGAGATGACACGTGTAAAATCTCGGAGTCACCTAGTGCAG” was tested, and the binding signal was 13200 fluorescence intensity (a.u.).
